Data published in PubChem BioAssay AID2685 (National Center for Advancing Translational Sciences (NCATS), 2010).
Some of the results follow. Further columns of the screen follow, without active or inactive calls. Compounds called inactive in the main read-out are mostly missing here. Words in brackets tell the shape of the fitted curve; partial curves, single points and poor fits give uncertain potencies.

Experiment: qHTS Assay for Lipid Storage Modulators in Drosophila S3 Cells;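 on cell number change: cells counted by Cell Tracker Red CMTPX staining in the red channel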
Details: BODIPY lipid droplet fluorescence, 18-24 h; for cell number change: measured here: cell count max response, cells fed with added oleic acid
In short: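 Laser-scanning cytometry quantifies lipid droplet accumulation (500–530 nm total intensity; droplet/cell object ratio) in oleic acid-fed (400 uM added) Drosophila S3 cells treated with a concentration series. 20 uM Triacsin C defined 100% inhibition.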

[1] = measured here: lipid fluorescence (Fed channel) AC50, cells fed with added oleic acid
[2] = measured here: cell number channel AC50, cells fed with added oleic acid

Structure (SMILES)	cell number change [%]	AC50 [1]	AC50 [2]
O=[N+]([O-])c1ccc(N2CCOCC2)nc1	-6.59	29.1 µM [rising, single point]	–
Cc1cc(=O)[nH]c(-c2ccccc2)n1	-40.9	14.6 µM [falling, partial curve]	16.4 µM [falling, partial curve]
Cc1[nH]c2ccccc2c1C(=O)CN1CCSCC1	0.485	0.092 µM [falling, full curve, poor fit]	–
CCOC(=O)c1sc(NC(=O)COC(=O)c2ccco2)nc1C	-6.29	–	–
COc1ccccc1/C=C/CN1CCCC(CCC(=O)NCc2ccc(F)c(F)c2)C1 (stereo not given)	7.28	5.17 µM [rising, full curve, poor fit]	–
CCOC(=O)C1=C(CSc2nc(C)cc(C)c2C#N)OC(N)=C(C#N)C1c1ccccc1 (stereo not given)	17.9	2.31 µM [rising, full curve]	–
COc1ccc2c(c1)c1ccc3c(c1n2C)C(=O)C=CC3=O	-65.7	8.2 µM [falling, partial curve]	9.2 µM [falling, partial curve]
CCC(O)c1nc2ccccc2n1CCc1ccccc1 (stereo not given)	–	–	0.116 µM [falling, full curve, poor fit]
COc1ccc(Cl)cc1NC(=O)CSc1nnc(CN2CCOCC2)n1-c1ccc(Cl)cc1	-5.83	0.092 µM [rising, full curve, poor fit]	0.082 µM [rising, full curve]
COc1cc([N+](=O)[O-])ccc1NC(=O)CCS(=O)(=O)c1ccc2c(c1)n(C)c(=O)c(=O)n2C	10.9	–	–
Cc1nc(-c2ccccc2O)n(-c2ccccc2)n1	–	–	1.46 µM [rising, single point]
Cc1ccc(C(=O)CCC(=O)Nc2cccc(C)c2)cc1	10.5	3.66 µM [rising, full curve]	–
O=C(NCCC1=CCCCC1)c1cc(-c2ccccn2)nc2ccccc12	-24.4	29.1 µM [falling, single point]	–
O=C(C1CC(=O)N(c2ccccc2)C1)N1CCN(c2ccccc2)CC1 (stereo not given)	-3.76	29.1 µM [rising, single point]	–
Cn1cnc(NCc2ccccc2)c1[N+](=O)[O-]	-2.67	–	–
COCCCNCCCOc1ccc(C(C)(C)c2ccccc2)cc1	–	–	2.59 µM [falling, partial curve, poor fit]
COc1ccc(NC2=NC(=S)N(c3cccc(C)c3)C23CCCCC3)cc1	4.06	–	5.8 µM [falling, single point]
Cc1c(C(=O)OCC(=O)NCc2ccccc2)oc2ccccc12	–	–	7.31 µM [falling, partial curve, poor fit]
O=C(O)CCCCCNC(=O)c1ccncc1	157	–	–
CC1CCc2c(nc3ncnn3c2N2CCN(c3ccccc3)CC2)C1 (stereo not given)	–	0.517 µM [rising, partial curve]	0.651 µM [rising, partial curve]
CCN(CCNC(=O)Cn1c(=O)sc2ccccc21)c1ccccc1	-35.6	29.1 µM [falling, single point]	16.4 µM [falling, single point]

Structure (SMILES)	cell number change [%]	AC50 [1]	AC50 [2]
CC(=O)Cc1nsc(NC(=O)c2ccc(COc3ccccc3Cl)o2)n1	4.78	–	–
COc1cc(NC(=S)NCCSc2ccc(C)cc2)cc(OC)c1	14.5	–	0.0103 µM [rising, full curve, poor fit]
O/N=C1/CCc2nonc2/C1=N/O	-65.4	4.11 µM [falling, full curve]	0.731 µM [falling, full curve]
Cc1ccccc1NC(=O)C(=O)NCCc1ccccc1	64.2	4.11 µM [rising, partial curve]	0.92 µM [rising, full curve]
COc1cc(CC(NC(C)=O)C(=O)NC2CCN(C(=O)C3CC3)CC2)cc(OC)c1 (stereo not given)	-7.69	–	2.31 µM [falling, partial curve, poor fit]
CCOC(=O)c1nc(Nc2ccccc2)c2ccccc2n1	–	2.06 µM [rising, partial curve]	1.84 µM [rising, partial curve]
CCOc1ccc(S(=O)(=O)NCc2ccccc2OC)cc1	59.9	–	–
Cc1ccc(Cn2nc(C)c(NC(=O)CSc3nc4c(c(C(F)(F)F)n3)CCc3ccccc3-4)c2C)cc1	2.65	0.058 µM [rising, full curve]	–
Cc1ccc(CN2CCC(CNC(=O)C3CCCN(c4ncnc5c4nc4n5CCCCC4)C3)CC2)cc1 (stereo not given)	5.81	29.1 µM [rising, single point]	–
OCc1cc(Br)ccc1OCc1nc2ccccc2s1	22.3	–	–
FC(F)(F)c1cnc(-c2cnc(-c3ccncc3)nc2)c(Cl)c1	–	0.58 µM [rising, single point]	–
CC(C)c1ccc(NC(=O)C2C3C=CC4(O3)C2C(=O)N(CCCN2CCOCC2)C4C(=O)NC2CCCCC2)cc1 (stereo not given)	15.8	29.1 µM [falling, single point]	–
Cc1ccc(C)c2[nH]c(=O)c(CCNS(=O)(=O)c3ccccc3)cc12	–	–	0.092 µM [rising, full curve, poor fit]
NS(=O)(=O)c1cc(C(=O)OCC(=O)NNC(=O)c2ccccc2)ccc1Cl	-43.4	0.184 µM [falling, full curve]	2.31 µM [falling, full curve]
N#CC1=C(N)NC(SCc2ccc(Br)cc2)=C(C#N)C12CCCCC2	-40.1	18.4 µM [falling, single point]	18.4 µM [falling, single point]
C#CCn1c(S(=O)(=O)Cc2ccccc2Cl)nc(-c2ccccc2)c1-c1ccccc1	–	0.82 µM [rising, full curve]	0.92 µM [rising, partial curve]
O=C(NCCCn1ccnc1)/C(=C\c1cccs1)NC(=O)c1ccco1	2.25	29.1 µM [falling, single point]	–
CCCCNC(=S)N/N=C/c1ccc(C#N)cc1	-11.6	–	0.517 µM [rising, full curve]
Cc1cccc(Cn2cc(/C=C/[N+](=O)[O-])c3ccccc32)c1	-14.2	4.61 µM [falling, full curve, poor fit]	–
O=C(c1ccc(NC(=S)NCc2ccco2)cc1)N1CCOCC1	–	0.00461 µM [falling, full curve, poor fit]	–
Cc1cc(-c2ccccc2)n(-c2ccc(C(=O)NC(C)C)cc2)n1	17.2	–	0.206 µM [rising, full curve, poor fit]

Four neighbouring entries from above, quoted:
Structure (SMILES)	cell number change [%]	AC50 [1]	AC50 [2]
COc1ccc(Cl)cc1NC(=O)CSc1nnc(CN2CCOCC2)n1-c1ccc(Cl)cc1	-5.83	0.092 µM [rising, full curve, poor fit]	0.082 µM [rising, full curve]
COc1cc([N+](=O)[O-])ccc1NC(=O)CCS(=O)(=O)c1ccc2c(c1)n(C)c(=O)c(=O)n2C	10.9	–	–
Cc1nc(-c2ccccc2O)n(-c2ccccc2)n1	–	–	1.46 µM [rising, single point]
Cc1ccc(C(=O)CCC(=O)Nc2cccc(C)c2)cc1	10.5	3.66 µM [rising, full curve]	–

Further entries

Structure (SMILES)	cell number change [%]	AC50 [1]	AC50 [2]
CCCCN(C)CCNC(=O)C1CCCN(S(=O)(=O)c2cccc3nsnc23)C1 (stereo not given)	6.05	2.59 µM [falling, partial curve]	–
CCN(CC)S(=O)(=O)c1ccc(/C=C/C(=O)Nc2ccc(Br)cc2F)cc1	-6.51	7.31 µM [falling, single point]	–
CCOC(=O)c1cccnc1NC(=O)c1ccccc1	29.5	3.66 µM [rising, single point]	–
COc1ccc(NC(=O)COC(=O)c2ccc(NS(=O)(=O)/C=C/c3ccccc3)cc2)cc1	12.7	–	–
COc1ccc(C)cc1NC(=O)C(Sc1nncn1C)c1ccccc1 (stereo not given)	57.2	–	20.6 µM [rising, single point]
CCC(C)CCN1CCN=C1N(C)C (stereo not given)	19.9	–	–
COc1ccc(/C=C(\NC(=O)c2ccc(C)cc2)C(=O)Nc2c(C)n(C)n(-c3ccccc3)c2=O)cc1	7.47	7.31 µM [falling, partial curve, poor fit]	–
Cn1cnnc1SCC(=O)NCc1ccccc1	–	–	0.164 µM [falling, full curve, poor fit]
CCN(CC)CCN(Cc1cc2cc3c(cc2[nH]c1=O)OCO3)C(=S)NCCCOC	-11.8	0.58 µM [falling, single point]	6.51 µM [falling, single point]
CSc1cccc(NC(=S)N(CCCN2CCCC2)Cc2cccn2Cc2ccc(Cl)cc2)c1	-60.2	29.1 µM [falling, single point]	29.1 µM [falling, single point]
Cc1ncc(CN2CCCC(C(=O)Nc3ccc(-c4cscn4)cc3)C2)cn1 (stereo not given)	7.23	2.91 µM [rising, single point]	–
CCc1c(C(=O)N/N=C/c2cn[nH]c2-c2ccc(F)cc2)csc1C	12.9	2.91 µM [rising, full curve]	–
Cc1cc(C(=O)N2CCN(c3ccccc3)CC2)c(C)o1	-9.5	1.46 µM [falling, full curve, poor fit]	–
CCCn1c(SCC(=O)N(C)CC(=O)Nc2ccc(C)cc2)n[nH]c1=O	-1.2	4.11 µM [rising, full curve]	–
Cc1ccc(C(=O)CN2C(=O)NC3(CCc4ccccc43)C2=O)c(C)c1 (stereo not given)	62.7	–	20.6 µM [rising, single point]
CCC(C)c1ccccc1NC(=O)c1cccnc1 (stereo not given)	–	–	0.651 µM [rising, single point]
O=c1[nH]c(CSc2ncnc3sc(-c4ccccc4)cc23)nc2ccccc12	26.6	29.1 µM [rising, single point]	–
CC(C)CNC(=O)[C@H](Cc1ccccc1)NC(=O)c1ccco1	58.6	6.51 µM [falling, single point]	–
COc1cccc(C(=O)Nc2ccc(Oc3cccc(C(F)(F)F)c3)nc2)c1	-47.8	18.4 µM [falling, single point]	29.1 µM [falling, single point]
